According to PMC6316740:
No constants are given. Whether binding was seen depends on the method and setting. In cells and extracts the contact can be indirect. Some binding calls cover weakened binding; strength is not graded here.

The chains behind the UniProt entries cited, without tags or fusion partners.
UniProt P63027: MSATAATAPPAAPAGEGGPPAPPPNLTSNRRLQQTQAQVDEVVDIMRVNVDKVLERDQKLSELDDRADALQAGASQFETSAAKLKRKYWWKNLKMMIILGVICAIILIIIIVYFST
UniProt P08247: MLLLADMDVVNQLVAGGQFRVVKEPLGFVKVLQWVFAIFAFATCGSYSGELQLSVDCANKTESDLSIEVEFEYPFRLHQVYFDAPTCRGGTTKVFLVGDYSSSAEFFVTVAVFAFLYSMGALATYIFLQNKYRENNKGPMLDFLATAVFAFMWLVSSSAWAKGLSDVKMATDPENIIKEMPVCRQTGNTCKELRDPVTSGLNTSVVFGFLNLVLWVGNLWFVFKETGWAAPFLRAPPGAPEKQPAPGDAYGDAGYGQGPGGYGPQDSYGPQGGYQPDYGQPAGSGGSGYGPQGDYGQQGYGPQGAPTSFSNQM

Biological target: synaptobrevin-2/VAMP-2 (human (endogenous in SH-SY5Y)) (UniProt P63027)
Experiment: co-IP; endogenous proteins of SH-SY5Y cells; samples incubated with rabbit anti-VAMP-2, mouse anti-α-Syn or mouse anti-synaptophysin antibody at 4 °C overnight, collected on immunomagnetic beads in binding buffer (50 mM Tris, 150 mM NaCl, 0.2% Triton-100; pH 7.5), blotted; normal, LV-α-Syn shRNA and LV-negative shRNA cells, 0 or 100 μM Mn for 24 h

binding: binds
Substance: synaptophysin (from UniProt P08247 1-313)
